Data source: PubChem BioAssay AID1259308 (NCATS, 2017)
This is a random part of about 59,000 deposited reagents. Over the whole deposit, about 1,510 (2.6%) were called active. 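Calls use total luciferase alone and ignore viability, so some active siRNAs may act by altering cell number.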 Entries without a mark were called inactive. The numbers tell different reagents against one gene apart. Reagent sequences are not shown.

- Assay: 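Knock-downs that increase output of a recombinant reporter protein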 (primary screen)
- Cell system: human HEK293 embryonic kidney cells stably expressing firefly luciferase (HEK-CMV-Luc2-Hygro)
- Reagent: single siRNA against human genes, 0.8 pmol siRNA per well
- Duration: 72 h
- Measurement: 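Reporter luminescence and viable-cell signal on separate replicate plates, given as percent of non-targeting control and median/MAD z-scores, plus per-cell luciferase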
- Scale: total luciferase, z-score and total luciferase, % of control: higher = more reporter protein produced; luciferase per cell, z-score: higher = more reporter output per viable cell; viable cells, % of control: higher = more viable cells
- Call rule: 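An siRNA counts as active if its total luciferase robust z-score exceeds 3; genes with two or more such siRNAs out of three were retested with fresh siRNAs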
- Calls: active = raised luciferase; inactive = no rise

no.	gene knocked down	siRNA no.	total luciferase, z-score	total luciferase, % of control	luciferase per cell, z-score	viable cells, % of control
1	SLC9C1	1	-0.115	79.6	-0.425	99.5
2	SLC9C1	2	-1.02	61.6	-0.717	83.2
3	SLC9C1	3	-0.475	72.4	-1.29	114
4	B4GALT4	1	-0.417	73.6	-0.548	95
5	B4GALT4	2	4.16 (active)	165	3.07	81.9
6	B4GALT4	3	-0.49	72.1	-0.694	96.8
7	TAS2R50	1	0.21	86.1	0.385	86.9
8	TAS2R50	2	2.02	122	1.48	92.4
9	TAS2R50	3	-0.332	75.3	1.42	57.9
10	TAS2R13	1	-2.3	36.2	-2.73	82.9
11	TAS2R13	2	0.289	87.6	-0.249	105
12	TAS2R13	3	1.65	115	0.659	108
13	IGSF1	1	-1.47	52.6	-0.949	75.5
14	IGSF1	2	-1	62	-1.23	95.8
15	IGSF1	3	-0.0395	81.1	-0.32	98.6
16	ACBD4	1	-0.769	66.6	-0.163	77.7
17	ACBD4	2	-1.18	58.3	-1.11	87.4
18	ACBD4	3	-1.45	53	-0.677	70.8
19	SH2D3C	1	1.42	110	1.16	90.6
20	SH2D3C	2	-1.57	50.6	0.801	45.8
21	SH2D3C	3	1.34	109	0.618	103
22	C1QL3	1	2.76	137	1.75	96.4
23	C1QL3	2	-1.31	55.8	-0.47	70.6
24	C1QL3	3	-0.397	74	-0.833	103
25	PPP1R27	1	-1.75	47	0.261	49.1
26	PPP1R27	2	0.948	101	0.238	106
27	PPP1R27	3	0.418	90.2	-0.074	103
28	NFATC3	1	-0.93	63.4	-1.27	99
29	NFATC3	2	1.96	121	2.57	68.7
30	NFATC3	3	-0.727	67.4	0.909	59.3
31	CNDP1	1	-2.13	39.6	-1.51	65.8
32	CNDP1	2	-0.693	68.1	-0.642	90.1
33	CNDP1	3	-2.41	34	-2.54	74.2

Next part (6 carried over from the part before).
no.	gene knocked down	siRNA no.	total luciferase, z-score	total luciferase, % of control	luciferase per cell, z-score	viable cells, % of control
28	NFATC3	1	-0.93	63.4	-1.27	99
29	NFATC3	2	1.96	121	2.57	68.7
30	NFATC3	3	-0.727	67.4	0.909	59.3
31	CNDP1	1	-2.13	39.6	-1.51	65.8
32	CNDP1	2	-0.693	68.1	-0.642	90.1
33	CNDP1	3	-2.41	34	-2.54	74.2
34	SLC7A3	1	-1.75	47	-1.92	87.1
35	SLC7A3	2	-1.89	44.3	-2.94	107
36	SLC7A3	3	-0.681	68.3	-1.11	102
37	CC2D2A	1	-0.501	71.9	-0.422	89.8
38	CC2D2A	2	0.424	90.3	0.481	88.9
39	CC2D2A	3	-0.926	63.5	-0.953	91.2
40	MAGEA9	1	1.18	105	0.869	93.7
41	MAGEA9	2	-0.425	73.4	0.584	70.4
42	MAGEA9	3	2.87	139	1.82	96.3
43	RAB14	1	-1.08	60.4	-0.354	74.1
44	RAB14	2	-0.527	71.4	-1.2	110
45	RAB14	3	0.00968	82.1	-0.301	99.3
46	LRRN4	1	1.24	107	2.72	58.2
47	LRRN4	2	-0.333	75.3	-0.696	101
48	LRRN4	3	-0.0828	80.2	0.467	79.3
49	ZNF213	1	3.67 (active)	155	3.33	72
50	ZNF213	2	2.93	140	2.01	92.2
51	ZNF213	3	0.257	87	-0.491	111
52	ABCC4	1	-2.18	38.5	-2.82	90.5
53	ABCC4	2	0.317	88.2	0.674	82.5
54	ABCC4	3	-0.98	62.4	0.151	67
55	GCDH	1	-2.08	40.6	-2.77	93.9
56	GCDH	2	0.538	92.6	-0.183	109
57	GCDH	3	-0.11	79.7	-0.367	98.1
